In article doi:10.1101/2021.04.20.440500:
These are yes or no findings as the source states them, for the method shown. Binding seen in cells or lysates may run through a third protein. These calls come from enrichment with a bait or labelling near it, and not all partners need be listed. Sequences can lack the tags named with a protein. Blank lines part the entries; values can stand above or below the binder they belong to.

Biological target: T1, TCAIM-eGFP fusion protein (UniProt Q66JZ4)
T1 sequence: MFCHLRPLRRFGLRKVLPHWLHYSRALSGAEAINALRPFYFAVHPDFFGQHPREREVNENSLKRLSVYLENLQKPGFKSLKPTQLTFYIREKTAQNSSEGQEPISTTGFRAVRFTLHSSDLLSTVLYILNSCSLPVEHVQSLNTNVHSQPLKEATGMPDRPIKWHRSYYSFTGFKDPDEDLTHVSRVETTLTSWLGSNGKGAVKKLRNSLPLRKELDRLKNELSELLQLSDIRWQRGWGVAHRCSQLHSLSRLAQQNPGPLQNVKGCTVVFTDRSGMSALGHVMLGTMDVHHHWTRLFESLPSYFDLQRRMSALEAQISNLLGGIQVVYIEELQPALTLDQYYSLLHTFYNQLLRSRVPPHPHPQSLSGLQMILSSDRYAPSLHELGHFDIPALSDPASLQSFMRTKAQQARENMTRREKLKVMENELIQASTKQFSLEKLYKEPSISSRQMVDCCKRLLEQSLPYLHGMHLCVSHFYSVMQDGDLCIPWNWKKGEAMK
Test: affinity purification with mass spectrometry

binding: binds
B1: SAM50 (protein, UniProt Q9Y512 1-469)
chain: MGTVHARSLEPLPSSGPDFGGLGEEAEFVEVEPEAKQEILENKDVVVQHVHFDGLGRTKDDIIICEIGDVFKAKNLIEVMRKSHEAREKLLRLGIFRQVDVLIDTCQGDDALPNGLDVTFEVTELRRLTGSYNTMVGNNEGSMVLGLKLPNLLGRAEKVTFQFSYGTKETSYGLSFFKPRPGNFERNFSVNLYKVTGQFPWSSLRETDRGMSAEYSFPIWKTSHTVKWEGVWRELGCLSRTASFAVRKESGHSLKSSLSHAMVIDSRNSSILPRRGALLKVNQELAGYTGGDVSFIKEDFELQLNKQLIFDSVFSASFWGGMLVPIGDKPSSIADRFYLGGPTSIRGFSMHSIGPQSEGDYLGGEAYWAGGLHLYTPLPFRPGQGGFGELFRTHFFLNAGNLCNLNYGEGPKAHIRKLAECIRWSYGAGIVLRLGNIARLELNYCVPMGVQTGDRICDGVQFGAGIRFL

binding: binds
B2: DJC11 (protein, UniProt Q9NVH1 1-559)
chain: MATALSEEELDNEDYYSLLNVRREASSEELKAAYRRLCMLYHPDKHRDPELKSQAERLFNLVHQAYEVLSDPQTRAIYDIYGKRGLEMEGWEVVERRRTPAEIREEFERLQREREERRLQQRTNPKGTISVGVDATDLFDRYDEEYEDVSGSSFPQIEINKMHISQSIEAPLTATDTAILSGSLSTQNGNGGGSINFALRRVTSAKGWGELEFGAGDLQGPLFGLKLFRNLTPRCFVTTNCALQFSSRGIRPGLTTVLARNLDKNTVGYLQWRWGIQSAMNTSIVRDTKTSHFTVALQLGIPHSFALISYQHKFQDDDQTRVKGSLKAGFFGTVVEYGAERKISRHSVLGAAVSVGVPQGVSLKVKLNRASQTYFFPIHLTDQLLPSAMFYATVGPLVVYFAMHRLIIKPYLRAQKEKELEKQRESAATDVLQKKQEAESAVRLMQESVRRIIEAEESRMGLIIVNAWYGKFVNDKSRKSEKVKVIDVTVPLQCLVKDSKLILTEASKAGLPGFYDPCVGEEKNLKVLYQFRGVLHQVMVLDSEALRIPKQSHRIDTDG

binding: binds
B3: TOM40 (protein, UniProt O96008 1-361)
chain: MGNVLAASSPPAGPPPPPAPALVGLPPPPPSPPGFTLPPLGGSLGAGTSTSRSSERTPGAATASASGAAEDGACGCLPNPGTFEECHRKCKELFPIQMEGVKLTVNKGLSNHFQVNHTVALSTIGESNYHFGVTYVGTKQLSPTEAFPVLVGDMDNSGSLNAQVIHQLGPGLRSKMAIQTQQSKFVNWQVDGEYRGSDFTAAVTLGNPDVLVGSGILVAHYLQSITPCLALGGELVYHRRPGEEGTVMSLAGKYTLNNWLATVTLGQAGMHATYYHKASDQLQVGVEFEASTRMQDTSVSFGYQLDLPKANLLFKGSVDSNWIVGATLEKKLPPLPLTLALGAFLNHRKNKFQCGFGLTIG
